The values that follow come from doi:10.1101/625483.

Amino acid sequences for entries named in this document (tags omitted). Residues count along the entry.
UniProt Q15116, residues 25-288: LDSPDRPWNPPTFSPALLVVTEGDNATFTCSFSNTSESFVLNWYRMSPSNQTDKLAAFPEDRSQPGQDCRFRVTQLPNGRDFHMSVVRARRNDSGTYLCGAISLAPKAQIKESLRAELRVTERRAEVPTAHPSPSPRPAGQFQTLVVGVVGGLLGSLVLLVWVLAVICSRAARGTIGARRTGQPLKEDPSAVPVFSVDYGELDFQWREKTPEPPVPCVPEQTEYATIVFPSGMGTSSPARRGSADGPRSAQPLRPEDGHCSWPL
UniProt P06730: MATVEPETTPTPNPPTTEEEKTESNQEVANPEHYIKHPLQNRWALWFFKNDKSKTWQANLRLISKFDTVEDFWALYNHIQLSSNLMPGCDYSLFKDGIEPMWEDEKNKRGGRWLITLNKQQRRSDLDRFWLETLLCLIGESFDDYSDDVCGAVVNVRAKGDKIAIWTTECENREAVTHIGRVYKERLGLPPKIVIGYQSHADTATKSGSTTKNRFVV

No constants are given. Whether binding was seen depends on the method and setting. In cells and extracts the contact can be indirect. Some entries that bind do so weakly or less than the wild type.

For this experiment, the target named is Programmed cell death protein 1 (PD-1), wild type, overexpressed from pcDNA3.1-Flag-PD-1 (UniProt Q15116). Briefly: co-IP.

Take eIF4E (from UniProt P06730 1-217): the binding entry was “binds”.
